# PubChem BioAssay AID720505 – Drosophila RNAi Screening Center – 2013
# Screen: 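Knock-downs that reduce calcium influx once internal stores are emptied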 (primary screen)
# Cells: Drosophila S2R+ cells
# Reagents: long dsRNA against Drosophila genes
# Challenge: thapsigargin (2 µM) in calcium-free buffer to empty internal stores, then 2 mM calcium added back
# Measurement: 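Fluo-4 signal in 384-well plates read on a FLIPR after thapsigargin (2 µM, calcium-free) store depletion and 2 mM calcium add-back; unnormalised mean endpoint per well; screen run twice, selected wells retested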
# Direction: calcium signal and retest calcium signal: higher = more calcium entry after store depletion
# Hit rule: 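Knock-downs counted as hits when calcium entry dropped relative to STIM1 positive and Rho1 negative controls present on each plate; roughly 1500 genes called, with reductions of differing size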
# Calls: active = called as lowering calcium entry; inactive = not called
# In all, the deposit lists about 20,000 reagents; below is a random part of those with a known target gene and a result. In the full data, about 2,100 (10%) were called active. 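Raw plate signals without normalisation; calls rest on control-based scores that were not deposited; replicate 2 separates called from uncalled poorly.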 A plus sign joins genes that one reagent is predicted to hit. No sequences are given here. Not given: the amount of reagent, the time to read-out.
target,amplicon,"calcium signal, replicate 1","calcium signal, replicate 2","retest calcium signal, replicate 1","retest calcium signal, replicate 2",call
fau (GeneID 41291),DRSC16943,90.5,99.2,,,inactive
fau (GeneID 41291),DRSC16944,141,87.9,,,inactive
fau (GeneID 41291),DRSC16945,142,99.5,5716,139,inactive
fau (GeneID 41291),DRSC22360,96.8,246,,,inactive
Frq1 (GeneID 32797),DRSC19961,91.9,137,,,inactive
CG6048 (GeneID 31528),DRSC18398,192,137,,,inactive
PGRP-LD + Pmi,DRSC10512,59,118,,,active
PGRP-LD + Pmi,DRSC10513,117,83.3,81.4,113,inactive
CG33639 (GeneID 32803),DRSC19966,122,135,7709,139,inactive
CG33639 (GeneID 32803),DRSC22820,89.5,92.3,,,inactive
msd5 (GeneID 38156),DRSC08560,88.4,156,,,inactive
CG34149 (GeneID 4379861),DRSC14537,176,134,,,inactive
Sgs4 (GeneID 31304),DRSC18715,98.5,130,,,inactive
CG30103 (GeneID 36969),DRSC06894,164,141,,,inactive
CG34284 (GeneID 5740234),DRSC14773,68.7,108,,,active
CG11437 (GeneID 40470),DRSC11659,85.5,137,,,inactive
CG30096 (GeneID 246454),DRSC21744,130,81.5,,,inactive
CG15387 (GeneID 33403),DRSC00401,133,138,,,inactive
CG30391 (GeneID 37423),DRSC21572,156,96,,,inactive
Ugt36F1 (GeneID 35137),DRSC02601,93.1,75.4,,,inactive
CG2225 (GeneID 35421),DRSC03722,192,101,,,inactive
CG2225 (GeneID 35421),DRSC03723,93.2,121,,,inactive
CG2162 (GeneID 38360),DRSC08557,91.3,109,,,inactive
CG17807 (GeneID 37585),DRSC04296,145,154,,,inactive
JIL-1 (GeneID 39241),DRSC11200,65.1,99.1,,,active
Dup99B (GeneID 2768691),DRSC22877,86.3,144,,,inactive
CG12321 (GeneID 42174),DRSC14499,186,284,,,inactive
CRIF (GeneID 40395),DRSC11811,82.7,120,,,inactive
CG15422 (GeneID 33615),DRSC00436,69.5,191,,,active
CG8176 (GeneID 261329),DRSC16394,101,109,,,inactive
CG13484 (GeneID 39560),DRSC10026,53,101,,,inactive
CG6839 (GeneID 40067),DRSC10723,136,82.1,,,inactive
CG42518 + MED9,DRSC06917,115,131,,,inactive
CG43610 (GeneID 12798580),DRSC00949,64.6,116,,,active

14 entries from above, reduced to “calcium signal, replicate 1”:
CG11437 (GeneID 40470) [DRSC11659]	85.5
CG30096 (GeneID 246454) [DRSC21744]	130
CG15387 (GeneID 33403) [DRSC00401]	133
CG30391 (GeneID 37423) [DRSC21572]	156
Ugt36F1 (GeneID 35137) [DRSC02601]	93.1
CG2225 (GeneID 35421) [DRSC03722]	192
CG2225 (GeneID 35421) [DRSC03723]	93.2
CG2162 (GeneID 38360) [DRSC08557]	91.3
CG17807 (GeneID 37585) [DRSC04296]	145
JIL-1 (GeneID 39241) [DRSC11200]	65.1
Dup99B (GeneID 2768691) [DRSC22877]	86.3
CG12321 (GeneID 42174) [DRSC14499]	186
CRIF (GeneID 40395) [DRSC11811]	82.7
CG15422 (GeneID 33615) [DRSC00436]	69.5

Further results:
target,amplicon,"calcium signal, replicate 1","calcium signal, replicate 2","retest calcium signal, replicate 1","retest calcium signal, replicate 2",call
CG42390 (GeneID 42600),DRSC15866,165,180,,,inactive
CG42390 (GeneID 42600),DRSC23064,113,181,,,inactive
CG42390 (GeneID 42600),DRSC23065,101,97.6,,,inactive
Amacr (GeneID 35337),DRSC03198,69,98.1,,,active
CG11069 (GeneID 42976),DRSC14289,178,252,,,inactive
mRpL47 (GeneID 41141),DRSC16827,96.7,92.7,,,inactive
Usp14 (GeneID 34387),DRSC02853,85,132,,,inactive
pit (GeneID 42595),DRSC17025,126,179,,,inactive
pit (GeneID 42595),DRSC22798,72,90.2,,,inactive
CG17124 (GeneID 34485),DRSC02580,114,165,,,inactive
S-Lap1 (GeneID 38986),DRSC10627,96.6,96.3,,,inactive
CG3457 (GeneID 31196),DRSC18509,135,144,,,inactive
CG5084 (GeneID 37051),DRSC06913,155,102,,,inactive
Tat (GeneID 32381),DRSC19602,92.8,102,,,inactive
CG30036 (GeneID 246408),DRSC21334,116,95.8,,,inactive
CG14194 (GeneID 32908),DRSC19549,67.4,181,,,active
Hmg-2 (GeneID 37407),DRSC04554,123,81.2,,,inactive
CG13362 (GeneID 31018),DRSC17897,71.2,121,,,inactive
CAP (GeneID 36084),DRSC05215,96.9,120,,,inactive
CAP (GeneID 36084),DRSC06743,139,198,,,inactive
CAP (GeneID 36084),DRSC06744,107,137,,,inactive
CAP (GeneID 36084),DRSC06745,93.6,140,,,inactive
CAP (GeneID 36084),DRSC06846,130,123,,,inactive
CR17024 (GeneID 14462752),DRSC02562,95.8,98.9,,,inactive
CG32069 + Blos2,DRSC10621,86.3,75.2,,,inactive
Bbd (GeneID 37314),DRSC06709,112,121,,,inactive
Rpp20 + CG33932,DRSC19467,32.9,98,,,active
vilya (GeneID 31264),DRSC18588,132,175,,,inactive
shams (GeneID 43008),DRSC16590,206,108,,,inactive
Lcp65Ad (GeneID 38707),DRSC11211,120,119,,,inactive
TBC1d7 + mRpS24,DRSC14611,199,122,,,inactive
Eaat2 (GeneID 33247),DRSC00032,90,117,,,inactive
Eaat2 (GeneID 33247),DRSC00749,148,157,,,inactive
sphinx1 (GeneID 318005),DRSC10993,90.3,59.8,,,inactive
PIG-Q (GeneID 117366),DRSC19138,107,104,,,inactive
CG9171 (GeneID 33807),DRSC03152,106,215,,,inactive
CG9171 (GeneID 33807),DRSC21813,148,95.2,,,inactive
FoxK (GeneID 39252),DRSC09859,99.7,75.2,,,inactive
CG5199 (GeneID 40265),DRSC11770,93.5,110,,,inactive
eIF3e (GeneID 39877),DRSC11199,102,149,,,inactive
CG6149 (GeneID 39277),DRSC10593,117,77.2,,,inactive
Snx27 (GeneID 31493),DRSC17786,270,177,,,inactive
Snx27 (GeneID 31493),DRSC18282,243,152,,,inactive
Snx27 (GeneID 31493),DRSC18284,201,161,,,active
CG11286 (GeneID 40919),DRSC14293,134,200,,,inactive
CG33137 (GeneID 36449),DRSC22131,114,126,,,inactive
CG13041 (GeneID 39801),DRSC09922,87.4,133,,,inactive
eEF2 (GeneID 35422),DRSC03737,100,121,,,inactive
Klp59D (GeneID 37674),DRSC04118,95.9,215,,,inactive
